From paper PMC12746103, “Structural insights into the exchange mechanism of a replicative DNA polymerase” (Nucleic Acids Research, 2025)
Results are given in words; binding and its absence hold for the method and conditions named.

Experiments:
[1] = target: dimer-interface mutant gp43(exo-) polymerase (D75R, Q430E, K432E in gp43(exo-) D219A) (bacteriophage T4) (UniProt P04415); assay: SEC; mixtures of the gp45 clamp and P/T DNA with either gp43(exo-) or the dimer-interface mutant polymerase; conditions not given; both purified
[2] = target: dimer-interface mutant gp43(exo-) polymerase (D75R, Q430E, K432E in gp43(exo-) D219A) (bacteriophage T4) (UniProt P04415); assay: cryo-EM structure; 10 μM gp45 clamp mixed with 5 μM primer/template DNA (20 mM HEPES pH 7.5, 150 mM KOAc, 10 mM MgCl2, 0.5 mM ddTTP, 2 mM DTT; 10 min, 30°C), then 6 μM gp43 polymerase added (10 min room temperature, 1 h on ice); no clamp loader; both purified

B1: dimer-interface mutant gp43(exo-) polymerase (D75R, Q430E, K432E in gp43(exo-) D219A) (enzyme, bacteriophage T4)
chain: MKEFYISIETVGNNIVERYIDENGKERTREVEYLPTMFRHCKEESKYKDIYGKNCAPQKFPSMKDARDWMKRMERIGLEALGMNDFKLAYISDTYGSEIVYDRKFVRVANCDIEVTGDKFPDPMKAEYEIDAITHYDSIDDRFYVFDLLNSMYGSVSKWDAKLAAKLDCEGGDEVPQEILDRVIYMPFDNERDMLMEYINLWEQKRPAIFTGWNIEGFAVPYIMNRVKMILGERSMKRFSPIGRVKSKLIQNMYGSKEIYSIDGVSILDYLDLYKKFAFTNLPSFSLESVAQHETKKGKLPYDGPINKLRETNHQRYISYNIIDVESVQAIDKIRGFIDLVLSMSYYAKMPFSGVMSPIKTWDAIIFNSLKGEHKVIPQQGSHVKQSFPGAFVFEPKPIARRYIMSFDLTSLYPSIIRQVNISPETIRGEFEVHPIHEYIAGTAPKPSDEYSCSPNGWMYDKHQEGIIPKEIAKVFFQRKDWKKKMFAEEMNAEAIKKIIMKGAGSCSTKPEVERYVKFSDDFLNELSNYTESVLNSLIEECEKAATLANTNQLNRKILINSLYGALGNIHFRYYDLRNATAITIFGQVGIQWIARKINEYLNKVCGTNDEDFIAAGDTDSVYVCVDKVIEKVGLDRFKEQNDLVEFMNQFGKKKMEPMIDVAYRELCDYMNNREHLMHMDREAISCPPLGSKGVGGFWKAKKRYALNVYDMEDKRFAEPHLKIMGMETQQSSTPKAVQEALEESIRRILQEGEESVQEYYKNFEKEYRQLDYKVIAEVKTANDIAKYDDKGWPGFKCPFHIRGVLTYRRAVSGLGVAPILDGNKVMVLPLREGNPFGDKCIAWPSGTELPKEIRSDVLSWIDHSTLFQKSFVKPLAGMCESAGMDYEEKASLDFLFG
notes: DNA polymerase gp43 of bacteriophage T4 with D219A (exo-) and the three dimer-interface mutations D75R, Q430E and K432E; PDB 9EA3 holds this mutant; the other three entries hold its parent m1; also called dimer-interface mutant polymerase; mutant polymerase; source: E. coli BL21(DE3), purified (chitin resin with intein-mediated cleavage, heparin)
- binding [1]: no binding
- binding [2]: no binding (tested: 6 μM gp43 polymerase)
